From publication PMC6428284
Results are given in words; binding and its absence hold for the method and conditions named. For some of these results: Binding calls can cover weak binding; strength is not graded here.

T1: Gal4 DNA binding domain-Yen1 (full-length YEN1 in pAS1, plasmid pJ90) (S. cerevisiae) (UniProt P40028)
T1 sequence: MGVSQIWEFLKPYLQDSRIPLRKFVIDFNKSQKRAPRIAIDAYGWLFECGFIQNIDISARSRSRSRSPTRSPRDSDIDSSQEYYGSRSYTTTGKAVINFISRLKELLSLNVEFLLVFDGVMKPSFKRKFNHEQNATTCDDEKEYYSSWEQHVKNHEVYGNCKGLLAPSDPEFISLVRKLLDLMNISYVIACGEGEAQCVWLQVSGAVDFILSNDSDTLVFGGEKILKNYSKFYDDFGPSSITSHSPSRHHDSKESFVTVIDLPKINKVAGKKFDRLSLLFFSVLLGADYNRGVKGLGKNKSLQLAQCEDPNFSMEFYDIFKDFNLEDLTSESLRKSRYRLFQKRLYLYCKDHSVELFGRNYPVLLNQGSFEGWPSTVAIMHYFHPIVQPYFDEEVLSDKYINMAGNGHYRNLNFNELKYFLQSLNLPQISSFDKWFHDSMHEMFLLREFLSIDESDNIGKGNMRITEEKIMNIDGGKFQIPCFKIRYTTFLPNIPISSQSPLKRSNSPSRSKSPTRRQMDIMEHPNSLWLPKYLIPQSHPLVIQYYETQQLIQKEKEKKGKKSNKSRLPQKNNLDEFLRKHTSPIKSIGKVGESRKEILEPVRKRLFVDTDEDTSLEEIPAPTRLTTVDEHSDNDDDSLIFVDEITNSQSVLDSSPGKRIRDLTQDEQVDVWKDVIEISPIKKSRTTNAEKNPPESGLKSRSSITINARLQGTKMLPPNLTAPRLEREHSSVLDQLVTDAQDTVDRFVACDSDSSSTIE

T2: GBD-Yen1 (1–690) (S. cerevisiae) (UniProt P40028)
T2 sequence: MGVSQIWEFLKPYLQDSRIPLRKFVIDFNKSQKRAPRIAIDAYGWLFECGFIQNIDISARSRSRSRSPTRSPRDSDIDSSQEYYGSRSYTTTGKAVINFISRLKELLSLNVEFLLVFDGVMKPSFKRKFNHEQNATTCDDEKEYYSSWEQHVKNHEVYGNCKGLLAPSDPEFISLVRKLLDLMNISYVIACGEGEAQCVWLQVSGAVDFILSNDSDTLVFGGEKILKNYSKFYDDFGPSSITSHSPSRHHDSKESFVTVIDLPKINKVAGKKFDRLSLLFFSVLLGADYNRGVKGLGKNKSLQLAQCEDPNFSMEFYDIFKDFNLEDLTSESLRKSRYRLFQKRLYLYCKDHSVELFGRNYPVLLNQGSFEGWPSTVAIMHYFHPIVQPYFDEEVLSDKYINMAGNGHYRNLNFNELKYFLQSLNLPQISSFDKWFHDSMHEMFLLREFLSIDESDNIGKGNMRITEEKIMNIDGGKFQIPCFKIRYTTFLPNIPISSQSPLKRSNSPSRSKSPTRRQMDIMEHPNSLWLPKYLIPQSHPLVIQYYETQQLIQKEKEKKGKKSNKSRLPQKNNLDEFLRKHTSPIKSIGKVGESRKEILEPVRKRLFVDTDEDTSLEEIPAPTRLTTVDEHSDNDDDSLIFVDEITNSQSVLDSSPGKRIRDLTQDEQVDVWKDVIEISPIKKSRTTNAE

T3: GBD-Yen1 (1–638) (S. cerevisiae) (UniProt P40028)
T3 sequence: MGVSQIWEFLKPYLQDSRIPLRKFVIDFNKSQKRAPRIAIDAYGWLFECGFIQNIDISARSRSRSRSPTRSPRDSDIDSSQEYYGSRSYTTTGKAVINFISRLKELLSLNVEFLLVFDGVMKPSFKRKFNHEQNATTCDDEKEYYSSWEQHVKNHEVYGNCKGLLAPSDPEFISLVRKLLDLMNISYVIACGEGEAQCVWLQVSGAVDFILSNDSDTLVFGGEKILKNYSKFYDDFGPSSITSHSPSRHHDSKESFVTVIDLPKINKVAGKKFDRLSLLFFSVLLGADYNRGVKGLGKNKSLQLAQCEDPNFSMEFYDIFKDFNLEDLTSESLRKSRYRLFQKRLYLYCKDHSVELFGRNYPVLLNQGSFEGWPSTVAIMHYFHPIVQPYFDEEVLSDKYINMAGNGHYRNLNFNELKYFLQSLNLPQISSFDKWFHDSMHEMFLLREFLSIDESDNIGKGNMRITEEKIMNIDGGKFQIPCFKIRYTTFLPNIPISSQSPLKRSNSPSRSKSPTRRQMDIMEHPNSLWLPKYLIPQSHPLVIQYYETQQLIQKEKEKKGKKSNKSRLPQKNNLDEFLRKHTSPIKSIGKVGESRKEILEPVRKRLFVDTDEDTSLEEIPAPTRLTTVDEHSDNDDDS


How the values were obtained:
Experiment in all cases: two-hybrid; strain PJ69-4A (wild-type SMT3); GAL4BD-Yen1 or truncated/mutant derivatives as bait, GAL4AD fusions (pACTII) as prey; ten-fold serial dilutions spotted on SC-His and SC-Ade plates, 3 days at 30°C; library screen and directed tests
[1] = target: T1, Gal4 DNA binding domain-Yen1 (full-length YEN1 in pAS1, plasmid pJ90) (S. cerevisiae)
[2] = target: T2, GBD-Yen1 (1–690) (S. cerevisiae)
[3] = target: T3, GBD-Yen1 (1–638) (S. cerevisiae)
[4] = target: GBD-Yen1 C-terminus (construct of S2 Fig) (S. cerevisiae)

Molecule | binding [1] | binding [2] | binding [3] | binding [4]
GAL4AD-Uls1 336–599 (ΔIII ΔLDT) (from UniProt Q08562) (domain or fragment) | binds | – | – | –
GAL4AD-Uls1 336–599 SIM2 (ΔIII) (from UniProt Q08562) (domain or fragment) | binds | – | – | –
GAL4AD-Uls1 336–599 SIM4 (ΔILV) (from UniProt Q08562) (domain or fragment) | binds | – | – | –
GAL4AD-Uls1 336–599 SIMs triple mutant (ΔIII ΔLDT ΔILV) (from UniProt Q08562) (domain or fragment) | binds weakly | binds | no binding | –
GAL4AD-Uls1 336–599 (domain or fragment, UniProt Q08562 336-599) GDFADNKILKRPILPSKNMDHTTHNSHDSEQKNSSIIILSDEDESGAGINDIESPLKVSEPNTADALRSSVPEVISLLDLPNIDLNNSVIKEASGSNSIPTSETDAQSSSSSVLQGTIMTEQATQSSQHECNSSLDTLKKNHQKLLKDLNSRESELRNALSCCKTNSEILRRKLSRREKEVSDAEKHWQLLLTSMARGGRTISSTQQILVDEAENQLNKLKEKRQLTKSKLDSINLKMYNYNEQWKSFVHSKNINLQKSLAALE | – | – | – | binds
